Assay results taken from publication PMC4066782, “The telomerase inhibitor Gno1p/PINX1 activates the helicase Prp43p during ribosome biogenesis” (Nucleic Acids Research, 2014).
Where a chain is given by its changes, count along the chain named. No constants are given. Whether binding was seen depends on the method and setting. For some assays here: Binding seen in cells or lysates may run through a third protein. Some binding calls cover weakened binding; strength is not graded here. Sequences can lack the tags named with a protein. Blank lines part the entries; values can stand above or below the molecule they belong to.

The chains behind the UniProt entries cited, without tags or fusion partners. Where a name states a change or a piece, a line headed by the entry shows the natural chain unless it says otherwise.
UniProt P53131: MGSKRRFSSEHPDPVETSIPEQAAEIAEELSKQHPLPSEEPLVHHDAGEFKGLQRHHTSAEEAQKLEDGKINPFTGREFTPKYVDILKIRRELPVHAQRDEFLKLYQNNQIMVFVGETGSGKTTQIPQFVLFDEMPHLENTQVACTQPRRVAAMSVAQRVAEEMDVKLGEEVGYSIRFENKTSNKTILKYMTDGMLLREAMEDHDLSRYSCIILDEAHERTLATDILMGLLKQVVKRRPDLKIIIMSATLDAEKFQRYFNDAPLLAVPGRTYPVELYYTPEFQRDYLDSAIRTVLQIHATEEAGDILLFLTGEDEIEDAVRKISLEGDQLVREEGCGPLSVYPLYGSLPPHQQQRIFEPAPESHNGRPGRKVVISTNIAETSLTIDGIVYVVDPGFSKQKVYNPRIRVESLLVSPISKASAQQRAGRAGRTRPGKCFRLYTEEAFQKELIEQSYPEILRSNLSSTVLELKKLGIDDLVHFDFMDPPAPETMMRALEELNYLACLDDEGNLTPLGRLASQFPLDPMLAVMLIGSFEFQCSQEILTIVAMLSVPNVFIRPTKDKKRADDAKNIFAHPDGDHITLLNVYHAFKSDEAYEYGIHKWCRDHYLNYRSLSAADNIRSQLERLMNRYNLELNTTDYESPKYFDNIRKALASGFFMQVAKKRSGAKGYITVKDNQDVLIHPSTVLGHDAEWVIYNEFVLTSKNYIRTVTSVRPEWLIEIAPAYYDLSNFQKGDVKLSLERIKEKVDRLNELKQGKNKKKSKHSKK

Legend:
[1] = target: T1, PINX1-HA (human) (UniProt Q96BK5); assay: co-IP; anti-HA affinity gel precipitates the HA-tagged protein from yeast extracts; Prp43p detected by western blot
T1 sequence: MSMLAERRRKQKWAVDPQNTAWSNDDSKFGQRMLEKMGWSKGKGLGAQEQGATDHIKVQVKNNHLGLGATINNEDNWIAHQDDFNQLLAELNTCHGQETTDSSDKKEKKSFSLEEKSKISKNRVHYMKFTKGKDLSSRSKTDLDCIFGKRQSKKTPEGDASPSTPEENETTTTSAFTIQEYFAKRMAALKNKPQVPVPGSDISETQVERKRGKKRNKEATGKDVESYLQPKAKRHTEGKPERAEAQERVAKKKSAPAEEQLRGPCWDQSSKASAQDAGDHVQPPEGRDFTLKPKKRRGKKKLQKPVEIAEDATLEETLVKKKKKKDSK

[2] = target: T2, Gno1p-HA (plasmid pFH170) (S. cerevisiae) (UniProt P53335); assay: as above
T2 sequence: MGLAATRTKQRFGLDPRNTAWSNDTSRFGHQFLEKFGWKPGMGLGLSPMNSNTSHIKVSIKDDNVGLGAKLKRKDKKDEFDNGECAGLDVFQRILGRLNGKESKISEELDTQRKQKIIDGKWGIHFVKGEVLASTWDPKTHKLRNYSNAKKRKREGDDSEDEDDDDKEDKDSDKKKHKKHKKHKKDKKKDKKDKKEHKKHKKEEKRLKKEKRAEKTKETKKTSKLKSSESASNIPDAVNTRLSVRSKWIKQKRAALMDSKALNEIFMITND

[3] = target: Prp43p-TAP (S. cerevisiae) (UniProt P53131); assay: co-IP; IgG sepharose beads precipitate the TAP- or ZZ-tagged protein from total yeast extracts; HA-tagged protein detected by western with anti-HA antibodies
[4] = target: Prp43p-HIS (S. cerevisiae, UniProt P53131 1-767); assay: pull-down; 2 μg of each purified recombinant protein mixed in 500-μl IP buffer (25-mM Tris-HCl pH 8.0, 300-mM KCl, 5-mM MgCl2, 10% glycerol, 0.1% NP-40, 0.5-mM DTT), pre-cleared, then precipitated with protein A/protein G Sepharose beads coated with anti-Prp43p antibodies, 2 h at 4°C; western with anti-His; both purified

B2: GST-PINX1-HIS (natural protein, human, UniProt Q96BK5 1-328, looked up)
chain: T1 sequence
- binding [3]: binds

B3: GST-PINX1Gm-HIS (protein, UniProt Q96BK5 1-328)
chain: T1 sequence with L34A, G38E, G42E, G44E, L45A, G46E
- binding [4]: no binding (tested: 2 μg of each protein in 500 μl)

More lines, now with the values ahead:

- binding [1]: binds
- binding [2]: binds
Molecule: Prp43p (in extracts of Δgno1 cells expressing HA-tagged proteins) (from UniProt P53131 1-767) (enzyme)

- binding [3]: binds
B1: Gno1p-HA (plasmid pFH170) (protein, UniProt P53335 1-271)
chain: T2 sequence
